Experimental data taken from PMC7053342.

The chains behind the UniProt entries cited, without tags or fusion partners.
UniProt P01106: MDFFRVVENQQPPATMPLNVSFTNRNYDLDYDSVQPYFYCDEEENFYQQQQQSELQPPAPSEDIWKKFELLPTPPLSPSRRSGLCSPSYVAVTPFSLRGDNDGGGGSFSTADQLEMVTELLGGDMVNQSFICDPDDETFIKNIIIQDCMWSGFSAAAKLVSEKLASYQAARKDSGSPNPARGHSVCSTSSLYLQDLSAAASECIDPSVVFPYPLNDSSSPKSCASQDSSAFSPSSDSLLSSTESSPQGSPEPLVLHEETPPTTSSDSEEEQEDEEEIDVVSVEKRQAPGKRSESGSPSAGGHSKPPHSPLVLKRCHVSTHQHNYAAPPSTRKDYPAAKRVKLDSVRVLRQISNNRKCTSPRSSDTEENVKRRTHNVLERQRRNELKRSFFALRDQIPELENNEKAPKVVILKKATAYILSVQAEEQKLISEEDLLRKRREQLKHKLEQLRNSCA
UniProt Q09472: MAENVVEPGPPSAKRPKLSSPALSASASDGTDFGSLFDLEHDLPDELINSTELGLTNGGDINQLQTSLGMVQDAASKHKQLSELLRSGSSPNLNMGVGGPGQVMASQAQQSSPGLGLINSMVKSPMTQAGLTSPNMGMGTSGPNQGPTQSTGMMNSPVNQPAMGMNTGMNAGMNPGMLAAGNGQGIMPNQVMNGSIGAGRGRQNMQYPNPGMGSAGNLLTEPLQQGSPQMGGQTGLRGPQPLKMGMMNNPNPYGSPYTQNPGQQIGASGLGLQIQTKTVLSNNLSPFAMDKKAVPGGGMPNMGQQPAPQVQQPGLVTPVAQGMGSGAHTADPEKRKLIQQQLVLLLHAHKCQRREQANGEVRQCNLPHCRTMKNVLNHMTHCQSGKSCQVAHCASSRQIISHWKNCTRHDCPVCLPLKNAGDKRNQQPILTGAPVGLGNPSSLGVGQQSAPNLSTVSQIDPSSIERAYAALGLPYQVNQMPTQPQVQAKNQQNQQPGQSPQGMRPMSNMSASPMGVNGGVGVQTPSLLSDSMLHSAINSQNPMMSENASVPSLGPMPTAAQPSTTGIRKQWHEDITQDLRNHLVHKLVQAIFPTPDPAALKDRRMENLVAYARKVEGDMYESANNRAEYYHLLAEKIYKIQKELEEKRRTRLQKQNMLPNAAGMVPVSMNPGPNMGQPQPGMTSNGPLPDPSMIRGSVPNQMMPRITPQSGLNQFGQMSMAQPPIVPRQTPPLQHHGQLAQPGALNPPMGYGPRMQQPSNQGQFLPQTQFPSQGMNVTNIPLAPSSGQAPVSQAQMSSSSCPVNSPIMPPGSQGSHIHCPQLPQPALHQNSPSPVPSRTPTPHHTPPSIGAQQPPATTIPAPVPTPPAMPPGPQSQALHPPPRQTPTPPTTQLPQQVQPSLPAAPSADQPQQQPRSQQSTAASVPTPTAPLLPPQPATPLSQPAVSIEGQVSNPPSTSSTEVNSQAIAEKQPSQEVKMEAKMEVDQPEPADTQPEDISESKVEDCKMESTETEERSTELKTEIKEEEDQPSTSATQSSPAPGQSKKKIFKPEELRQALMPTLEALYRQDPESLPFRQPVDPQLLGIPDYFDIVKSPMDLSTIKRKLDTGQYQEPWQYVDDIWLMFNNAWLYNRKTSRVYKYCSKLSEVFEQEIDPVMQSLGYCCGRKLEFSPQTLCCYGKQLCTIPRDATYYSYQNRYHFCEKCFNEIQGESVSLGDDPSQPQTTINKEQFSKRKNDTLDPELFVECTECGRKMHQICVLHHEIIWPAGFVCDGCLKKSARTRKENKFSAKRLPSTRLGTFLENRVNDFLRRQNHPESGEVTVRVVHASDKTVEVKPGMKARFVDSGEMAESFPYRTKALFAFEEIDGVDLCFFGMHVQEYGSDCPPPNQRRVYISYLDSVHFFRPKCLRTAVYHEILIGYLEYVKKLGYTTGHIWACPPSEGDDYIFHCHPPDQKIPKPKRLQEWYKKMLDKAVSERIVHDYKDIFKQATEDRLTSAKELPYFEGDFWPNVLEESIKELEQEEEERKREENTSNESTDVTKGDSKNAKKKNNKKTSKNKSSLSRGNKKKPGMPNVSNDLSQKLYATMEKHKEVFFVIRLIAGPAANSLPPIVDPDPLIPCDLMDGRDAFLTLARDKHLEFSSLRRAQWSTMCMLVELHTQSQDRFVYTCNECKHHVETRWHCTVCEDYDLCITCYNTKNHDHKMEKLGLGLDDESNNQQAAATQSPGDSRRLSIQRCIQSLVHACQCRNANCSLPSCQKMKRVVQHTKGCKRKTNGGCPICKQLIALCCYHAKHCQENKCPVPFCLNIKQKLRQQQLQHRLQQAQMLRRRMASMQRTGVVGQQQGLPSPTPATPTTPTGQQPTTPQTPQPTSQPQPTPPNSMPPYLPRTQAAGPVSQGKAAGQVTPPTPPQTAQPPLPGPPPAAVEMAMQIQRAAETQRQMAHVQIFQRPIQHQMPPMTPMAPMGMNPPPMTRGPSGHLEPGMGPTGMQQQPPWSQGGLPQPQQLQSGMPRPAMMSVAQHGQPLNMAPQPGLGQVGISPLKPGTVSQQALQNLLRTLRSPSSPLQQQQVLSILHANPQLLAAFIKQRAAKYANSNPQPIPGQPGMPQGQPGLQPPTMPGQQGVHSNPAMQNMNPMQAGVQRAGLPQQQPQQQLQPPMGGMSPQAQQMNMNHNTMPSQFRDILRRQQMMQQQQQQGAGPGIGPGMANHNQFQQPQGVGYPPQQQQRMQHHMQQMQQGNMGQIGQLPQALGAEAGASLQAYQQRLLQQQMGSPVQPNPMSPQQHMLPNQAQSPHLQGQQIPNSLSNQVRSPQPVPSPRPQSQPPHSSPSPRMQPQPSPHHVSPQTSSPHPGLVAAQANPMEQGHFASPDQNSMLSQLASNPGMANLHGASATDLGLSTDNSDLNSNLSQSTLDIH

Biological target: 2×Flag-3×HA-c-Myc (UniProt P01106)
Experiment: affinity purification with mass spectrometry; HT29 cells expressing pCDNA3-2×Flag-3×HA-c-Myc (empty vector as control), RIPA lysate; anti-Flag agarose 4°C overnight, Flag peptide elution, then anti-HA agarose 4°C overnight; SDS-PAGE, silver staining, bands digested with trypsin and identified by mass spectrometry

binding: binds
Substance: p300 (from UniProt Q09472 1-2414)

These are yes or no findings as the source states them, for the method shown. Binding seen in cells or lysates may run through a third protein. Here binding means that the protein was enriched with, or labelled near, the bait; the list need not be complete.
